Data as given in the supplement of paper PMC10849652.
The other results are listed elsewhere or left out.

Chains of the proteins cited; added tags and fusions are not shown. Lines headed by an entry give the natural chain unless they say otherwise; changes in a name come on top.
UniProt Q9BUN5: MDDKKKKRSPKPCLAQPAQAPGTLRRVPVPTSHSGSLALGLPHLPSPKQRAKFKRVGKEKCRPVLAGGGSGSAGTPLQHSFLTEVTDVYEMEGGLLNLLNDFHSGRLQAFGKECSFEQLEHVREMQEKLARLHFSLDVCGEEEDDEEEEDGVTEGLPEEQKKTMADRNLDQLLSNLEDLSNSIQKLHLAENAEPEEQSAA
UniProt Q8WXE0: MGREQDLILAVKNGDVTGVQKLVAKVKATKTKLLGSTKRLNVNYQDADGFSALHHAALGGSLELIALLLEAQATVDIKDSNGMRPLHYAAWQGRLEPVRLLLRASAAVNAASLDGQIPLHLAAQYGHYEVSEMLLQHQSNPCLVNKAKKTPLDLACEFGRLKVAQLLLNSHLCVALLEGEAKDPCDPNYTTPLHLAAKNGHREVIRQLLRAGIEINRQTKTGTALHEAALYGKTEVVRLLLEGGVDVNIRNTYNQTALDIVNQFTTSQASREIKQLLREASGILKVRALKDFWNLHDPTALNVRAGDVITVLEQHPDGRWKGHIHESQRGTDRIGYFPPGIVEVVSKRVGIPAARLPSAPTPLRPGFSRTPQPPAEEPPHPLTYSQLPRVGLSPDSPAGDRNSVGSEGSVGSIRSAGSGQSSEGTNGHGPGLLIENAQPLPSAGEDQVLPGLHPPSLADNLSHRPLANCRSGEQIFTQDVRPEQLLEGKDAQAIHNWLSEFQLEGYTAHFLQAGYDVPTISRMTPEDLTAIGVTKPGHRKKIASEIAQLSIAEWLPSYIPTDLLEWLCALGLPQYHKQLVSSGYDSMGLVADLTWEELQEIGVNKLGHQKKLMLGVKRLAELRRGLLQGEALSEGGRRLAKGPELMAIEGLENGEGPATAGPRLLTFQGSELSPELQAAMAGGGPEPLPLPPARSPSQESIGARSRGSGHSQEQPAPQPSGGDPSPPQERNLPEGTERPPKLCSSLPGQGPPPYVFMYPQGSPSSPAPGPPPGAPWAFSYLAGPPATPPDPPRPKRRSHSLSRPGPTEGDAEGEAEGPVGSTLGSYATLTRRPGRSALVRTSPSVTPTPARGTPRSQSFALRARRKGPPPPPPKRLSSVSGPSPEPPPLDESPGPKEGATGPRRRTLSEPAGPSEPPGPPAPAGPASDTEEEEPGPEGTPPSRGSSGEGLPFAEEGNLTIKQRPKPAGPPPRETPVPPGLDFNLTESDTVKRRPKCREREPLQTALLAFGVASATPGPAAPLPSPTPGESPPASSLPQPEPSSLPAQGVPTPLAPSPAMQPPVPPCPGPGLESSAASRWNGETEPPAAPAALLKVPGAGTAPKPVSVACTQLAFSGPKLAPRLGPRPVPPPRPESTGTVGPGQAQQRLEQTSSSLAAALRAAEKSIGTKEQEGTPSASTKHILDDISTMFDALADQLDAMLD
UniProt Q9BSQ5: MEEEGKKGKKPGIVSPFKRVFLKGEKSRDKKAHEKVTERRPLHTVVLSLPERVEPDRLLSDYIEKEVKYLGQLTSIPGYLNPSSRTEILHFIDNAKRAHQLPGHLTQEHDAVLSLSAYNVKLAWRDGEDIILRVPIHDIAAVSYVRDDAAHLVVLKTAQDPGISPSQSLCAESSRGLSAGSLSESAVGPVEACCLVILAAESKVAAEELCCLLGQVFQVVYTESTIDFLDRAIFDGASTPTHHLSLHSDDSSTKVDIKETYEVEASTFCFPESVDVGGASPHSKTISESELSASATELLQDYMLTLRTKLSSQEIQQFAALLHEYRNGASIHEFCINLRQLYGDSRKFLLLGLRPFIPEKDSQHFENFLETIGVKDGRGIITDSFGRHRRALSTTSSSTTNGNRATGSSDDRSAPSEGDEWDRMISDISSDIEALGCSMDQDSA
UniProt Q8N4J0: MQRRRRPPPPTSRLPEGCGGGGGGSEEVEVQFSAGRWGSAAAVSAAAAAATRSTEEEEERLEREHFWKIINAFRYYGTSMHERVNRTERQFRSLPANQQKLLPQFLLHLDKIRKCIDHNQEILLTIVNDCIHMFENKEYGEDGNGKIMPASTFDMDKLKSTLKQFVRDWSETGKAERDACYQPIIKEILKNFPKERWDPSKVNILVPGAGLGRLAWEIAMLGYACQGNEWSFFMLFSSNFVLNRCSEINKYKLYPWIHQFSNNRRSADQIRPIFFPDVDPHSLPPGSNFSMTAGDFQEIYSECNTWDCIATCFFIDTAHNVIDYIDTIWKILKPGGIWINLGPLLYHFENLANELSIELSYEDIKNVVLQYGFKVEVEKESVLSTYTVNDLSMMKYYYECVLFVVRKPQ
UniProt Q9Y5K6, whole entry, looked up: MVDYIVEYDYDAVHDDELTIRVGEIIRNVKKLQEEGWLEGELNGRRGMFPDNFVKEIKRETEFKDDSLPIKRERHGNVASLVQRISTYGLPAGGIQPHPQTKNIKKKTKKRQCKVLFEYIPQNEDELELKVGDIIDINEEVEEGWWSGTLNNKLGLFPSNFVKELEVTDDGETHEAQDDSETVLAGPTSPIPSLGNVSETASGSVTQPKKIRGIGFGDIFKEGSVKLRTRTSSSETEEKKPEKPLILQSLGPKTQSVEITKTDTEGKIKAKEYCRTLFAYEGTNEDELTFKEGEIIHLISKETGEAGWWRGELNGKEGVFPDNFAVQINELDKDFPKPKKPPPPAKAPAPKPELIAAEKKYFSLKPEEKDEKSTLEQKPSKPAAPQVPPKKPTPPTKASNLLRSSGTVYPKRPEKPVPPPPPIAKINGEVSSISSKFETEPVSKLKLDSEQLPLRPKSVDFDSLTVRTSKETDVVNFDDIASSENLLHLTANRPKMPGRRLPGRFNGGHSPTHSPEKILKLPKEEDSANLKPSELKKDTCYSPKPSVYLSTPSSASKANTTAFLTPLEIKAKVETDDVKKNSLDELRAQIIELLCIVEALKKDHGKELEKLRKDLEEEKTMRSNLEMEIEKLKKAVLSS
UniProt Q14790: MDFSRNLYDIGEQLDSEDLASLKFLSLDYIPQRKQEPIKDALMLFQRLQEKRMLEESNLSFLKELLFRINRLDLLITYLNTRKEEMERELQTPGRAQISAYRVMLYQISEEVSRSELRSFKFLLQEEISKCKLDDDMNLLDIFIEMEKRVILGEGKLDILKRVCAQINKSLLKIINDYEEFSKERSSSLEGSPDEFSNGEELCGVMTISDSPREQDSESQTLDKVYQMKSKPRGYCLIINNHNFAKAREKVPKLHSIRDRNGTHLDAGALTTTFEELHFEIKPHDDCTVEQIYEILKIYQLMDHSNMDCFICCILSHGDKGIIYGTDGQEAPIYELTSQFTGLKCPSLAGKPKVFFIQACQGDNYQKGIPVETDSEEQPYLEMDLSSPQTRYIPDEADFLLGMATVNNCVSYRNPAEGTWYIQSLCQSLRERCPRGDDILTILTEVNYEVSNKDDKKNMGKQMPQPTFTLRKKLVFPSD
UniProt Q7Z6B0: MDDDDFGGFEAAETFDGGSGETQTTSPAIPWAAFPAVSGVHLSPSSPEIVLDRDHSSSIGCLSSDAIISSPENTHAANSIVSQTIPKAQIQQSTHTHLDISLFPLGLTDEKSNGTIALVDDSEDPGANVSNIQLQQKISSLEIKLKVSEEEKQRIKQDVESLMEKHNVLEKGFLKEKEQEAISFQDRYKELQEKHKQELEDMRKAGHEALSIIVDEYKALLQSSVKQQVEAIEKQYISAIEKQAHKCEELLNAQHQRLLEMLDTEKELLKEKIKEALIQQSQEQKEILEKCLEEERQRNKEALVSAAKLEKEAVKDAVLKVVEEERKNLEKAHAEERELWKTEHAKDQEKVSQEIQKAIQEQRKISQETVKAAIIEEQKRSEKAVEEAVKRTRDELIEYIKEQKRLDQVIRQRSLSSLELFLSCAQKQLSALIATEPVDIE
UniProt O60563, whole entry, looked up: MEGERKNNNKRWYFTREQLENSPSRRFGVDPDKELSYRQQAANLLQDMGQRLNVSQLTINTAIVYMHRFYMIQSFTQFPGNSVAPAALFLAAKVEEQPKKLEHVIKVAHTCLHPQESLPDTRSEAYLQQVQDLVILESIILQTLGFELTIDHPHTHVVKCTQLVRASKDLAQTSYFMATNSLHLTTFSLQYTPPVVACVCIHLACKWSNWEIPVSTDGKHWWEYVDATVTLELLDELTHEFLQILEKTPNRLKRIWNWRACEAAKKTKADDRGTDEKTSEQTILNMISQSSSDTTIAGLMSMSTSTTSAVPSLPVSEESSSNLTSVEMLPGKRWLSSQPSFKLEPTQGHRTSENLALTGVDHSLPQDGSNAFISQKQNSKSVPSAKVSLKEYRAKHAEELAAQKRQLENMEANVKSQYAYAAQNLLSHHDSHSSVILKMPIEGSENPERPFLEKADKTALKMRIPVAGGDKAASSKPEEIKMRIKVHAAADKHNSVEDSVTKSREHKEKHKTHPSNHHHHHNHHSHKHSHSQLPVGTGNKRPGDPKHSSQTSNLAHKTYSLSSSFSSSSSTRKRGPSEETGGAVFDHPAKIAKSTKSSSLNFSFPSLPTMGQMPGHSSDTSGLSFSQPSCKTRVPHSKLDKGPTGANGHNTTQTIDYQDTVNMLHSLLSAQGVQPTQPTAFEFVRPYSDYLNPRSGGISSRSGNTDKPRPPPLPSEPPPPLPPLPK
UniProt P83916, whole entry, looked up: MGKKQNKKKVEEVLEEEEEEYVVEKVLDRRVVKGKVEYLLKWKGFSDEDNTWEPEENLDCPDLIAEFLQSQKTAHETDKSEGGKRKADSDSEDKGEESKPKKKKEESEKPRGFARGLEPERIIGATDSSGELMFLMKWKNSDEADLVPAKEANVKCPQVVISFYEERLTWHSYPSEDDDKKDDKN
UniProt Q96ER9: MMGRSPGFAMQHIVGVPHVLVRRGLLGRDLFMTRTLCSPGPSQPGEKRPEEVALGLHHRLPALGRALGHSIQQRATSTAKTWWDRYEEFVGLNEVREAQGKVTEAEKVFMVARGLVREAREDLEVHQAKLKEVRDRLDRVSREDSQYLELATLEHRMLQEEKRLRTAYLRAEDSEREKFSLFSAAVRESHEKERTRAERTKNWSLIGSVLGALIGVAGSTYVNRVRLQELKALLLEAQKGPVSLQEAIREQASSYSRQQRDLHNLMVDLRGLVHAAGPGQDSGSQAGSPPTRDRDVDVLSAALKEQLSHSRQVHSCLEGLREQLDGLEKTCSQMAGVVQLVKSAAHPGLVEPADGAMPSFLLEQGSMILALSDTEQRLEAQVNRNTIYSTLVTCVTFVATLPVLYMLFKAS
UniProt Q96NT0: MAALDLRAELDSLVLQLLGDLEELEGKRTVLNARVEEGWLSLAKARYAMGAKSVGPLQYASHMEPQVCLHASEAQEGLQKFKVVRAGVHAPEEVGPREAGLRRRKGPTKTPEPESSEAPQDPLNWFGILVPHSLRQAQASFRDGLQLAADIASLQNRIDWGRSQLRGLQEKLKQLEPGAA
UniProt P33681, whole entry, looked up: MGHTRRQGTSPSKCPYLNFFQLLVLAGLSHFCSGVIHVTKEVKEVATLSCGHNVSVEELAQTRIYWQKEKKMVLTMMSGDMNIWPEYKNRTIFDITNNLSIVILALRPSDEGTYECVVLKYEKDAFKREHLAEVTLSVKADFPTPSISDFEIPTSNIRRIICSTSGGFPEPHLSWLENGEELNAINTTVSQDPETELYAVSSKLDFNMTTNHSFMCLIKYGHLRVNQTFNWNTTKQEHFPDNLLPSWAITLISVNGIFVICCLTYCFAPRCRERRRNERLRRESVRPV
UniProt Q8N4S0: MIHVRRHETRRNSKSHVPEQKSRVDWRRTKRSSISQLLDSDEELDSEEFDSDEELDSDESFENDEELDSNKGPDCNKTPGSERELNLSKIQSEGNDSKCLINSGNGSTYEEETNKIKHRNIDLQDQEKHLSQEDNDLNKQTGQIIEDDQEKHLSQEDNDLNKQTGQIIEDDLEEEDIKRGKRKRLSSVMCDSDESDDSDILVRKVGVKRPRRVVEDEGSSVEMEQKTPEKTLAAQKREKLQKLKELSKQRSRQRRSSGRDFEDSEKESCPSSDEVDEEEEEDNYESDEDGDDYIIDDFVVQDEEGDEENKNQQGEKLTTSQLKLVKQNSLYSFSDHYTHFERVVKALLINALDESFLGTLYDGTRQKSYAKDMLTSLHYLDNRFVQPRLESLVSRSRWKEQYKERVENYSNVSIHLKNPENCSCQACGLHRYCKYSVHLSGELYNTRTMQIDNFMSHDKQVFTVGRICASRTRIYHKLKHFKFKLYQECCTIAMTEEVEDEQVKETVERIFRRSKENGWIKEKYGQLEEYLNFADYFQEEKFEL
UniProt P24863: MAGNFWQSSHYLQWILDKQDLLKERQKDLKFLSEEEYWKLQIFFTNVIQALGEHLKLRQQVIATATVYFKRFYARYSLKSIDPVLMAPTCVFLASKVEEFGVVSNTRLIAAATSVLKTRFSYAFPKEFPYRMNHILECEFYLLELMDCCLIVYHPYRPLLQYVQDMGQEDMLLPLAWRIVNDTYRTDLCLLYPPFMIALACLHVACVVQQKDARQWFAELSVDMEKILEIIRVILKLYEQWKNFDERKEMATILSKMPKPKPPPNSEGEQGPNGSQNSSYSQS

Tests used:
Assay in all cases: log2 fold change, soluble protein after heating vs DMSO (PISA); higher = thermal stabilisation; K562 lysate, 10 uM; active = over 0.2 and 3.5 SD of the protein, either way, in both replicates (recomputed)
nilotinib = compound: Cc1cn(-c2cc(NC(=O)c3ccc(C)c(Nc4nccc(-c5cccnc5)n4)c3)cc(C(F)(F)F)c2)cn1 [nilotinib]
In short: (§1)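 Following dounce homogenisation of K562 pellets in PBS pH 7.4 with 1 mM MgCl2, crude extract at 1 mg/mL protein was incubated for 30 min with 10 μM compound. Aliquots were then heated for 3 min over 48°C-58°C and pooled, NP-40 was added to 0.5% at 4°C, and soluble protein was recovered as the supernatant at 21,000xg for 90 min. Channel-sum-equalised TMTpro 16plex LC-MS/MS quantified this protein. Each value, from duplicates, is a log-two fold change in thermal stability relative to solvent controls.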

[1] = compound: Cc1nc(Nc2n[nH]c3c2CN(C(=O)N[C@H](CN(C)C)c2ccccc2)C3(C)C)c2sccc2n1
In short: as §1

dasatinib = compound: Cc1nc(Nc2ncc(C(=O)Nc3c(C)cccc3Cl)s2)cc(N2CCN(CCO)CC2)n1 [dasatinib]
In short: as §1

[2] = compound: Cc1ncc(-c2ccnc(Nc3ccc(S(C)(=O)=O)cc3)n2)n1C(C)C
In short: as §1

[3] = compound: Cn1cc(-c2ccc3c(c2)CCN3C(=O)Cc2cccc(C(F)(F)F)c2)c2c(N)ncnc21
In short: as §1

quisinostat = compound: Cn1cc(CNCC2CCN(c3ncc(C(=O)NO)cn3)CC2)c2ccccc21 [quisinostat]
In short: as §1

tipifarnib = compound: Cn1cncc1[C@@](N)(c1ccc(Cl)cc1)c1ccc2c(c1)c(-c1cccc(Cl)c1)cc(=O)n2C [tipifarnib]
In short: as §1

[4] = compound: NC(=O)Nc1cc(-c2cccc(F)c2)sc1C(=O)N[C@H]1CCCNC1
In short: as §1

[5] = compound: NC(=O)c1cnc(N[C@@H]2CCCC[C@@H]2N)nc1Nc1cccc(-n2nccn2)c1
In short: as §1

[6] = compound: NC1(c2ccc(-c3nc4ccn5c(=O)[nH]nc5c4cc3-c3ccccc3)cc2)CCC1
In short: as §1

[7] = compound: NCC(=O)Nc1ccc(-n2nc(C(F)(F)F)cc2-c2ccc3c(ccc4ccccc43)c2)cc1
In short: as §1

vorinostat = compound: O=C(CCCCCCC(=O)Nc1ccccc1)NO [vorinostat]
In short: as §1

silmitasertib = compound: O=C(O)c1ccc2c(c1)nc(Nc1cccc(Cl)c1)c1ccncc12 [silmitasertib]
In short: as §1

[8] = compound: O=C1NC(=O)C(c2cnc3ccccn23)=C1c1cn2c3c(cc(F)cc13)CN(C(=O)N1CCCCC1)CC2
In short: as §1

entospletinib = compound: c1cn2cc(-c3ccc4cn[nH]c4c3)nc(Nc3ccc(N4CCOCC4)cc3)c2n1 [entospletinib]
In short: as §1

Target	log2 fold change (nilotinib)	log2 fold change [1]	log2 fold change (dasatinib)	log2 fold change [2]	log2 fold change [3]	log2 fold change (quisinostat)	log2 fold change (tipifarnib)	log2 fold change [4]	log2 fold change [5]	log2 fold change [6]	log2 fold change [7]	log2 fold change (vorinostat)	log2 fold change (silmitasertib)	log2 fold change [8]	log2 fold change (entospletinib)
CCDC137 (UniProt Q6PK04)	inactive: -0.1	inactive: -0.043	inactive: 0.12	inactive: 0.034	inactive: -0.05	inactive: 0.034	inactive: -0.04	inactive: 0.101	inactive: 0	inactive: -0.124	inactive: 0.014	inactive: 0.177	inactive: 0.019	inactive: 0.082	inactive: -0.025
CCDC28B (UniProt Q9BUN5)	inactive: -0.181	inactive: 0.278	inactive: -0.1	inactive: -0.046	inactive: 0.123	inactive: -0.123	inactive: -0.086	inactive: 0.068	inactive: -0.074	inactive: 0.158	inactive: -0.12	inactive: -0.036	inactive: -0.022	inactive: -0.041	inactive: -0.058
CASC3 (UniProt O15234)	inactive: -0.007	inactive: -0.004	inactive: -0.01	inactive: -0.024	inactive: -0.007	inactive: -0.003	inactive: -0.011	inactive: 0	inactive: -0.031	inactive: 0.023	inactive: 0.032	inactive: 0.075	inactive: -0.013	inactive: 0.021	inactive: 0.018
CCDC47 (UniProt Q96A33)	inactive: -0.012	inactive: -0.009	inactive: -0.016	inactive: 0.025	inactive: -0.009	inactive: 0.006	inactive: -0.025	inactive: 0.014	inactive: 0.019	inactive: -0.023	inactive: 0.002	active: 0.207	inactive: 0.026	inactive: 0.011	inactive: -0.007
CASKIN2 (UniProt Q8WXE0)	inactive: 0.012	inactive: -0.027	inactive: 0.018	inactive: 0.004	inactive: -0.017	inactive: -0.052	inactive: -0.062	inactive: -0.075	inactive: 0.017	inactive: -0.062	inactive: 0.002	inactive: 0.122	inactive: -0.024	inactive: -0.045	inactive: 0.015
CD3EAP isoform 2 (UniProt O15446)	inactive: -0.007	inactive: 0.047	inactive: 0.004	inactive: 0.02	inactive: -0.026	inactive: -0.068	inactive: -0.003	inactive: -0.03	inactive: -0.029	inactive: 0.014	inactive: 0.014	inactive: 0.027	inactive: -0.016	inactive: 0.001	inactive: -0.022
CCM2 isoform 2 (UniProt Q9BSQ5)	inactive: -0.041	inactive: -0.026	inactive: 0.022	inactive: -0.051	inactive: 0.024	inactive: -0.082	inactive: -0.038	inactive: 0.047	inactive: 0.002	inactive: 0.052	inactive: 0.031	inactive: -0.023	inactive: -0.009	inactive: -0.058	inactive: -0.06
CCNA2 (UniProt P20248)	inactive: -0.014	inactive: 0.064	inactive: 0.04	active: 0.234	inactive: -0.051	inactive: -0.086	inactive: -0.015	inactive: 0.005	inactive: 0.063	inactive: -0.021	inactive: 0.005	inactive: 0.075	inactive: -0.06	inactive: -0.026	inactive: -0.011
CARNMT1 (UniProt Q8N4J0)	inactive: 0.019	inactive: -0.016	inactive: 0.003	inactive: -0.019	inactive: 0.006	inactive: -0.173	inactive: 0.011	inactive: 0.004	inactive: 0.019	inactive: -0.023	inactive: 0.005	inactive: 0.027	inactive: 0.008	inactive: -0.028	inactive: -0.039
CD2AP (UniProt Q9Y5K6)	inactive: -0.016	inactive: 0.028	inactive: 0.02	inactive: -0.013	inactive: -0.026	inactive: 0.015	inactive: -0.014	inactive: -0.036	inactive: -0.015	inactive: -0.012	inactive: 0.011	inactive: 0.053	inactive: -0.027	inactive: 0.003	inactive: 0.002
CASP8 isoform 9 (UniProt Q14790)	inactive: 0.024	inactive: -0.025	inactive: 0.008	inactive: -0.031	inactive: -0.001	inactive: 0.103	inactive: 0.026	inactive: 0.023	inactive: 0.018	inactive: 0.052	inactive: -0.014	inactive: -0.061	inactive: 0.038	inactive: 0.036	inactive: -0.021
CCDC91 (UniProt Q7Z6B0)	inactive: 0.018	inactive: 0.011	inactive: -0.02	inactive: 0.016	inactive: 0.014	inactive: -0.004	inactive: 0.008	inactive: 0.008	inactive: -0.012	inactive: 0.003	inactive: -0.023	inactive: 0.041	inactive: -0.014	inactive: -0.041	inactive: -0.028
CCNT1 (UniProt O60563)	inactive: 0.002	inactive: -0.044	inactive: -0.033	inactive: -0.034	inactive: -0.094	inactive: -0.028	inactive: -0.074	inactive: 0.013	inactive: 0.191	inactive: 0.042	inactive: 0.062	inactive: -0.112	inactive: -0.035	inactive: 0	inactive: -0.025
CBX1 (UniProt P83916)	inactive: 0.006	inactive: -0.003	inactive: 0.017	inactive: 0	inactive: -0.027	inactive: -0.004	inactive: -0.008	inactive: -0.004	inactive: 0.062	inactive: 0.012	inactive: 0.029	inactive: 0.092	inactive: -0.046	inactive: -0.01	inactive: -0.018
CCDC51 (UniProt Q96ER9)	inactive: -0.037	inactive: -0.049	inactive: -0.016	inactive: 0.035	inactive: -0.014	inactive: 0.017	inactive: -0.082	inactive: 0.02	inactive: -0.015	inactive: -0.04	inactive: 0.002	inactive: 0.153	inactive: 0.011	inactive: 0.015	inactive: -0.046
CCDC115 (UniProt Q96NT0)	inactive: -0.007	inactive: -0.052	inactive: -0.019	inactive: -0.002	inactive: 0.043	inactive: 0.029	inactive: -0.037	inactive: -0.035	inactive: 0.062	inactive: -0.066	inactive: -0.095	inactive: 0.084	inactive: 0.031	inactive: -0.017	inactive: -0.106
CD80 (UniProt P33681)	inactive: 0.259	inactive: -0.065	inactive: -0.015	inactive: -0.333	inactive: 0.039	inactive: 0.025	inactive: 0.023	inactive: -0.002	inactive: 0.086	inactive: -0.03	inactive: 0.018	inactive: -0.028	inactive: -0.067	inactive: -0.066	inactive: -0.162
CBFA2T3 (UniProt O75081)	inactive: -0.018	inactive: 0.02	inactive: -0.026	inactive: -0.019	inactive: -0.008	inactive: -0.07	inactive: -0.047	inactive: 0.043	inactive: 0	inactive: 0.001	inactive: -0.004	active: -0.4	inactive: 0.009	inactive: -0.019	inactive: -0.012
CCDC82 (UniProt Q8N4S0)	inactive: -0.017	inactive: 0.052	inactive: 0.051	inactive: 0.027	inactive: 0.075	inactive: -0.005	inactive: -0.074	inactive: -0.012	inactive: 0.117	inactive: -0.105	inactive: -0.005	inactive: 0.067	inactive: 0.068	inactive: -0.022	inactive: 0.02
CCNC (UniProt P24863)	inactive: 0.013	inactive: 0.035	inactive: 0.04	inactive: 0.202	inactive: -0.017	inactive: 0	inactive: -0.049	inactive: 0.048	inactive: -0.007	inactive: -0.029	inactive: 0.159	inactive: -0.001	inactive: 0.338	inactive: -0.092	inactive: 0.029
CBR4 (UniProt Q8N4T8)	inactive: -0.11	inactive: -0.138	inactive: -0.03	inactive: 0.071	inactive: 0	inactive: -0.024	inactive: -0.088	inactive: 0.023	inactive: -0.005	inactive: 0.036	inactive: -0.02	inactive: 0.109	inactive: -0.073	inactive: 0.018	inactive: 0.012

Reformatted bar-delimited: part of the list above
Target | log2 fold change (nilotinib) | log2 fold change [1] | log2 fold change (dasatinib) | log2 fold change [2] | log2 fold change [3] | log2 fold change (quisinostat) | log2 fold change (tipifarnib) | log2 fold change [4] | log2 fold change [5] | log2 fold change [6] | log2 fold change [7] | log2 fold change (vorinostat) | log2 fold change (silmitasertib) | log2 fold change [8] | log2 fold change (entospletinib)
CD80 (UniProt P33681) | inactive: 0.259 | inactive: -0.065 | inactive: -0.015 | inactive: -0.333 | inactive: 0.039 | inactive: 0.025 | inactive: 0.023 | inactive: -0.002 | inactive: 0.086 | inactive: -0.03 | inactive: 0.018 | inactive: -0.028 | inactive: -0.067 | inactive: -0.066 | inactive: -0.162
CBFA2T3 (UniProt O75081) | inactive: -0.018 | inactive: 0.02 | inactive: -0.026 | inactive: -0.019 | inactive: -0.008 | inactive: -0.07 | inactive: -0.047 | inactive: 0.043 | inactive: 0 | inactive: 0.001 | inactive: -0.004 | active: -0.4 | inactive: 0.009 | inactive: -0.019 | inactive: -0.012
